Data published in the supplement of paper PMC8728848.
Some of the results follow.

Columns and labels:
Experiment in all cases: glycan array binding signal (z-score within array); higher = stronger binding
Settings in all cases: glycan notation: IUPAC condensed, linker removed
Neu5Ac(a2-6)Gal(b1-4)Glc = biological target: Neu5Ac(a2-6)Gal(b1-4)Glc
Procedure, shortened: (§1)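 Glycan array data came from 3228 arrays in the Consortium for Functional Glycomics database, and only arrays with an available protein sequence were kept. Glycan names were put into IUPAC-condensed notation, and columns mapping to the same glycan were averaged. The binding signal is a within-array Z-score, averaged across arrays of one protein sequence run at different concentrations or buffers and across linkers. A negative Z-score can be read as non-binding.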

[1] = biological target: Neu5Ac(a2-6)Gal(b1-4)GlcNAc
Procedure, shortened: as §1

[2] = biological target: Neu5Ac(a2-6)Gal(b1-4)GlcNAc(b1-2)Man(a1-3)Man(b1-4)GlcNAc(b1-4)GlcNAc
Procedure, shortened: as §1

[3] = biological target: Neu5Ac(a2-6)Gal(b1-4)GlcNAc(b1-2)Man(a1-3)[Gal(b1-4)GlcNAc(b1-2)Man(a1-6)]Man(b1-4)GlcNAc(b1-4)GlcNAc
Procedure, shortened: as §1

[4] = biological target: Neu5Ac(a2-6)Gal(b1-4)GlcNAc(b1-2)Man(a1-3)[GlcNAc(b1-2)Man(a1-6)]Man(b1-4)GlcNAc(b1-4)GlcNAc
Procedure, shortened: as §1

[5] = biological target: Neu5Ac(a2-6)Gal(b1-4)GlcNAc(b1-2)Man(a1-3)[GlcNAc(b1-2)Man(b1-4)GlcNAc(b1-2)Man(a1-6)]Man(b1-4)GlcNAc(b1-4)GlcNAc
Procedure, shortened: as §1

[6] = biological target: Neu5Ac(a2-6)Gal(b1-4)GlcNAc(b1-2)Man(a1-3)[Man(a1-6)]Man(b1-4)GlcNAc(b1-4)GlcNAc
Procedure, shortened: as §1

[7] = biological target: Neu5Ac(a2-6)Gal(b1-4)GlcNAc(b1-2)Man(a1-3)[Neu5Ac(a2-6)Gal(b1-4)GlcNAc(b1-2)Man(a1-6)]Man(b1-4)GlcNAc(b1-4)GlcNAc
Procedure, shortened: as §1

[8] = biological target: Neu5Ac(a2-6)Gal(b1-4)GlcNAc(b1-2)Man(a1-6)Man(b1-4)GlcNAc(b1-4)GlcNAc
Procedure, shortened: as §1

[9] = biological target: Neu5Ac(a2-6)Gal(b1-4)GlcNAc(b1-2)Man(a1-6)[Gal(b1-4)GlcNAc(b1-2)Man(a1-3)]Man(b1-4)GlcNAc(b1-4)GlcNAc
Procedure, shortened: as §1

[10] = biological target: Neu5Ac(a2-6)Gal(b1-4)GlcNAc(b1-2)Man(a1-6)[GlcNAc(b1-2)Man(a1-3)]Man(b1-4)GlcNAc(b1-4)GlcNAc
Procedure, shortened: as §1

[11] = biological target: Neu5Ac(a2-6)Gal(b1-4)GlcNAc(b1-2)Man(a1-6)[Man(a1-3)]Man(b1-4)GlcNAc(b1-4)GlcNAc
Procedure, shortened: as §1

[12] = biological target: Neu5Ac(a2-6)Gal(b1-4)GlcNAc(b1-3)Gal(b1-3)GlcNAc
Procedure, shortened: as §1

[13] = biological target: Neu5Ac(a2-6)Gal(b1-4)GlcNAc(b1-3)Gal(b1-4)GlcNAc
Procedure, shortened: as §1

[14] = biological target: Neu5Ac(a2-6)Gal(b1-4)GlcNAc(b1-3)Gal(b1-4)GlcNAc(b1-3)Gal(b1-4)GlcNAc
Procedure, shortened: as §1

[15] = biological target: Neu5Ac(a2-6)Gal(b1-4)GlcNAc(b1-3)Gal(b1-4)[Fuc(a1-3)]GlcNAc(b1-3)Gal(b1-4)[Fuc(a1-3)]GlcNAc
Procedure, shortened: as §1

[16] = biological target: Neu5Ac(a2-6)Gal(b1-4)GlcNAc(b1-3)GalNAc
Procedure, shortened: as §1

[17] = biological target: Neu5Ac(a2-6)Gal(b1-4)GlcNAc6S
Procedure, shortened: as §1

Neu5Ac(a2-6)GalNAc = biological target: Neu5Ac(a2-6)GalNAc
Procedure, shortened: as §1

[18] = biological target: Neu5Ac(a2-6)GalNAc(b1-4)GlcNAc
Procedure, shortened: as §1

[19] = biological target: Neu5Ac(a2-6)GlcNAc(b1-4)GlcNAc
Procedure, shortened: as §1

[20] = biological target: Neu5Ac(a2-6)GlcNAc(b1-4)GlcNAc(b1-4)GlcNAc
Procedure, shortened: as §1

Neu5Ac(a2-8)Neu5Ac = biological target: Neu5Ac(a2-8)Neu5Ac
Procedure, shortened: as §1

[21] = biological target: Neu5Ac(a2-8)Neu5Ac(a2-3)Gal(b1-4)Glc
Procedure, shortened: as §1

[22] = biological target: Neu5Ac(a2-8)Neu5Ac(a2-3)[GalNAc(b1-4)]Gal(b1-4)Glc
Procedure, shortened: as §1

[23] = biological target: Neu5Ac(a2-8)Neu5Ac(a2-8)Neu5Ac
Procedure, shortened: as §1

[24] = biological target: Neu5Ac(a2-8)Neu5Ac(a2-8)Neu5Ac(a2-3)Gal(b1-4)Glc
Procedure, shortened: as §1

[25] = biological target: Neu5Ac(a2-8)Neu5Ac(a2-8)Neu5Ac(a2-3)[GalNAc(b1-4)]Gal(b1-4)Glc
Procedure, shortened: as §1

[26] = biological target: Neu5Ac(a2-8)Neu5Ac(a2-8)Neu5Ac(a2-8)Neu5Ac(a2-3)[GalNAc(b1-4)]Gal(b1-4)Glc
Procedure, shortened: as §1

[27] = biological target: Neu5Ac(b2-6)Gal(b1-4)GlcNAc
Procedure, shortened: as §1

Neu5Ac(b2-6)GalNAc = biological target: Neu5Ac(b2-6)GalNAc
Procedure, shortened: as §1

[28] = biological target: Neu5Ac9Ac(a2-3)Gal(b1-3)GlcNAc
Procedure, shortened: as §1

[29] = biological target: Neu5Ac9Ac(a2-3)Gal(b1-4)GlcNAc
Procedure, shortened: as §1

[30] = biological target: Neu5Ac9Ac(a2-6)Gal(b1-4)GlcNAc
Procedure, shortened: as §1

[31] = biological target: Neu5Gc(a2-3)Gal(b1-3)GlcNAc
Procedure, shortened: as §1

[32] = biological target: Neu5Gc(a2-3)Gal(b1-3)[Fuc(a1-4)]GlcNAc
Procedure, shortened: as §1

Neu5Gc(a2-3)Gal(b1-4)Glc = biological target: Neu5Gc(a2-3)Gal(b1-4)Glc
Procedure, shortened: as §1

[33] = biological target: Neu5Gc(a2-3)Gal(b1-4)GlcNAc
Procedure, shortened: as §1

[34] = biological target: Neu5Gc(a2-3)Gal(b1-4)[Fuc(a1-3)]GlcNAc
Procedure, shortened: as §1

[35] = biological target: Neu5Gc(a2-6)Gal(b1-4)GlcNAc
Procedure, shortened: as §1

Neu5Gc(a2-6)GalNAc = biological target: Neu5Gc(a2-6)GalNAc
Procedure, shortened: as §1

[36] = biological target: Neu5Gc(b2-6)Gal(b1-4)GlcNAc
Procedure, shortened: as §1

B1: CTLX (Homo sapiens), Q6UXS0 (protein)
chain: SLCPLFWMEFKGHCYRFFPLNKTWAEADLYCSEFSVGRKSAKLASIHSWEENVFVYDLVNSCVPGIPADVWTGLHDHRQEGQFEWTDGSSYDYSYWDGSQPDDGVHADPEEEDCVQIWYRPTSALRSWNDNTCSRKFPFVCKIPSLTIH
In the case of B1, the “glycan array binding signal (z-score)” value (Neu5Ac(a2-6)Gal(b1-4)Glc) is reported as -0.67, the “glycan array binding signal (z-score)” value [1] is reported as 0.022 and the “glycan array binding signal (z-score)” value [2] is reported as 0.035. For the same binder, the “glycan array binding signal (z-score)” value [3] was -0.158, the “glycan array binding signal (z-score)” value [4] was 0.474 and the “glycan array binding signal (z-score)” value [5] was -0.339. The “glycan array binding signal (z-score)” value [6] was -0.749, the “glycan array binding signal (z-score)” value [7] was -0.572 and the “glycan array binding signal (z-score)” value [8] was 0.682. The “glycan array binding signal (z-score)” value [9] was 0.542, the “glycan array binding signal (z-score)” value [10] was -0.215 and the “glycan array binding signal (z-score)” value [11] was -0.29. The “glycan array binding signal (z-score)” value [12] was -0.812, the “glycan array binding signal (z-score)” value [13] was -0.462 and the “glycan array binding signal (z-score)” value [14] was 0.3. For the same binder, the “glycan array binding signal (z-score)” value [15] was -0.324, the “glycan array binding signal (z-score)” value [16] was -0.816 and the “glycan array binding signal (z-score)” value [17] was -0.462. The “glycan array binding signal (z-score)” value (Neu5Ac(a2-6)GalNAc) was -1.03, the “glycan array binding signal (z-score)” value [18] was -0.243 and the “glycan array binding signal (z-score)” value [19] was -0.73. For the same binder, the “glycan array binding signal (z-score)” value [20] was -0.675, the “glycan array binding signal (z-score)” value (Neu5Ac(a2-8)Neu5Ac) was 1.67 and the “glycan array binding signal (z-score)” value [21] was -0.365. The “glycan array binding signal (z-score)” value [22] was -0.666, the “glycan array binding signal (z-score)” value [23] was -1.08 and the “glycan array binding signal (z-score)” value [24] was -0.799. For the same binder, the “glycan array binding signal (z-score)” value [25] was -1.09, the “glycan array binding signal (z-score)” value [26] was -0.898 and the “glycan array binding signal (z-score)” value [27] was -0.51. For the same binder, the “glycan array binding signal (z-score)” value (Neu5Ac(b2-6)GalNAc) was -0.381, the “glycan array binding signal (z-score)” value [28] was -0.325 and the “glycan array binding signal (z-score)” value [29] was -0.558. For the same binder, the “glycan array binding signal (z-score)” value [30] was 2.23, the “glycan array binding signal (z-score)” value [31] was -0.63 and the “glycan array binding signal (z-score)” value [32] was -0.794. The “glycan array binding signal (z-score)” value (Neu5Gc(a2-3)Gal(b1-4)Glc) was 0.909, the “glycan array binding signal (z-score)” value [33] was -0.224 and the “glycan array binding signal (z-score)” value [34] was -0.341. The “glycan array binding signal (z-score)” value [35] was -0.99, the “glycan array binding signal (z-score)” value (Neu5Gc(a2-6)GalNAc) was -0.736 and the “glycan array binding signal (z-score)” value [36] was -0.388.
